Measured values reported in the supplement of paper PMC3334620.
Over roughly 33,000 sequences, “E-score (-0.5 to 0.5)” has its median near -0.0059; the highest 2% begin near 0.26. The list shows a part of the results.

What follows are sequences tested against T1, Cin5 (UniProt P40917) (assay: PBM E-score (8-mer binding enrichment) (E-score (-0.5 to 0.5)); higher = stronger / more preferred TF binding). Conditions: protein concentration: 100 nM; construct: GST-full length.
T1 sequence: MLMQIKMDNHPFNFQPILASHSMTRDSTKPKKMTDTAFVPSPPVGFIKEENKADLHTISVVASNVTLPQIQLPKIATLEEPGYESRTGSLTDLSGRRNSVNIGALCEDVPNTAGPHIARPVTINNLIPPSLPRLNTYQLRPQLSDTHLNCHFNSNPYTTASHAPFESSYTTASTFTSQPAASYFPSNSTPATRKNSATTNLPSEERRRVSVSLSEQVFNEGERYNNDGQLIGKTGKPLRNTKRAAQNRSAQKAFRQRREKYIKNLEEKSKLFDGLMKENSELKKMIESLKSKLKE
Outline: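 For each ungapped eight-base word taken together with its reverse complement, the Universal PBM Analysis Suite assigned an E-score. Binding data came from GST-tagged yeast transcription factors, applied at about 100-200 nM, on universal all-10-mer Agilent arrays made double-stranded by primer extension. Fluorescent anti-GST marked bound protein, and scans were normalised with masliner.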

Sequence | PBM E-score
CAAACCGG | 0.028
CGCAAACG | -0.0563
GCAGATGA | -0.00081
CCTATGTA | 0.0303
AGCAGGTA | -0.0341
GTATAGAC | 0.0156
AGGGTAAC | -0.0521
CGATGAGA | 0.02
ATTAAATA | 0.274
ATACAGGC | -0.0273
CCTGCAAC | -0.0227
ATTATCAG | 0.119
AGATGTAC | 0.08
GGGGGCGA | -0.397
CATGAACG | -0.0517
AGTCTCAC | -0.158
CTGCGTAC | -0.204
CTGGCACC | -0.189
CCCAAGCC | -0.166
AATCGATT | 0.166
CAGCCACA | 0.027
CCAGATGA | -0.0126
TAGGTCCA | -0.0318
ATTATCAC | 0.234
TATCTTAA | 0.0772

Sequence | PBM E-score
AATACGTA | 0.313
ATAAGGAC | -0.157
CAACGGTA | -0.181
ACACGTGC | -0.113
ACGGGAGC | -0.164
CACAGCAG | 0.0514
TATCGTAA | 0.28
ACCGCGTC | -0.0702
AAAAGCAG | -0.0496
GGTGATAC | 0.0684
ATTAGCAA | 0.235
AAAGGTTA | -0.0742
ACCGCCGC | -0.101
CTAACCTC | -0.058
AGGCCCAT | -0.227
GAGGCCCC | -0.302
AAAGGAAC | 0.0182
GCGCCCAA | 0.0114
TCTATAGA | -0.18
CCGAGAGC | -0.207
GCATGGCA | 0.133
CACCGCAC | -0.0813
GCGAAACC | 0.0461
ACGGGTAA | 0.0226
CAGCTTGG | 0.188

Single values from the results shown:
ACGGGTAA – PBM E-score: 0.0226
GGTGATAC – PBM E-score: 0.0684

More records:

Sequence | PBM E-score
CAACTTTA | 0.131
GAAACGGC | 0.00767
CCAAGCAC | 0.00692
GCCCGAGA | -0.00433
ATATACAA | 0.266
GATCACAA | 0.17
TATCAAAA | 0.166
ACTACATC | 0.111
CTCGTCAC | -0.0121
GCTAAGCA | 0.0676
CGTTGTAA | -0.0474
GTAAGATA | 0.12
ACCCTGGC | -0.138
CACATTGA | 0.101
ATATGGTA | 0.23
AACGTAGT | -0.0268
GGACGAAC | -0.0519
CCGAATAC | 0.0979
AAATAATG | 0.21
CTCAATTC | 0.106
CTCACGAG | -0.0635
AGAGGTTC | 0.0226
ATCATGCA | 0.17
GGTGTTAA | 0.00557
GCCGGTCA | -0.087

Sequence | PBM E-score
CGAGTTAC | 0.193
GCGAAACA | 0.141
ACCATTGC | 0.0233
GTGGGGAA | 0.152
CCTCTTGA | -0.138
GGCCTGTA | -0.124
CTGCGCAC | -0.0989
AAGGCCAT | 0.00834
GTGTGTAA | 0.179
ACGATCGT | 0.0139
AGAACCAC | -0.0472
TATCGGGA | 0.00638
AGTTAGTG | 0.0937
AAATAGAT | 0.297
TGCCAACA | -0.117
AAACCGTG | -0.143
ACTTTTGG | 0.164
TATCCATA | 0.203
GCCGCATA | 0.209
CCTGCAGC | -0.0691
CCGTTACA | 0.178
CGCCACAG | -0.0874
TTATAGAA | 0.0432
AGGCCCAA | -0.0434
AGCAGTCA | -0.0454

Sequence | PBM E-score
CCGAAATA | 0.209
CCTGTTTC | -0.025
ATTGAAAG | 0.00608
TGTAGGAA | -0.139
ACATCCCT | 0.0705
ATGTCCTA | -0.0294
AAATACCG | 0.012
AAGAGCTG | -0.0813
CACGTCCC | -0.197
AGGTTGAA | 0.0659
AACAAGGG | -0.184
ATATTTCA | 0.108
CGCATCAA | 0.0722
AAAATGGT | 0.216
AAGATCTG | 0.0322
CTCCCAAA | 0.118
AAACAAAC | 0.037
CATTCCGA | 0.255
CTGATAGC | -0.00917
GGCTCATA | 0.0114
TACGACGA | 0.145
CAAATCAG | 0.122
GGGGCCCA | -0.246
ACCCCAAA | 0.11
CCTAAATA | -0.0834

Fetched one by one from the entries so far (4):
Sequence | PBM E-score
ACCCCAAA | 0.11
CACGTCCC | -0.197
CATTCCGA | 0.255
AACAAGGG | -0.184

(next part)

Sequence | PBM E-score
AGCACCTC | 0.108
ACTCAACG | -0.0348
ATAGGTGG | -0.0698
ACGGCGCT | -0.105
ACTTAAGG | -0.0244
ATTGACCC | -0.00345
GTACGCCA | -0.181
CTGACTAC | -0.00132
ACTAAACG | 0.06
GAGAGCTA | -0.0372
AACGACGA | 0.118
ACCGTACA | -0.108
GAAGATGA | -0.0258
GGAAAGCC | 0.111
ATGAATGA | 0.143
CCCATGAG | -0.052
GTCCCTTA | 0.0799
TGGTGCAA | -0.0945
ATTGGCCA | 0.0999
GGAGTATA | 0.0872
CCGGACAA | 0.0257
AACGCGGC | -0.00899
GACCTCCA | -0.0693
TCCGGCGA | 0.0986
GTGATCGA | 0.273

Reformatted as labelled records: part of the list above.
AACGACGA
  PBM E-score: 0.118
ACCGTACA
  PBM E-score: -0.108
GAAGATGA
  PBM E-score: -0.0258
GGAAAGCC
  PBM E-score: 0.111

Following part.

Sequence | PBM E-score
CGGTCTTC | -0.085
TAGCGGCA | -0.087
GGGAGGAA | -0.0413
AAACCAGC | -0.00246
GAAGTGGA | -0.103
CGATTCCG | 0.0417
CTCGTAGA | -0.268
AGCTTACA | 0.351
AAACTATC | 0.0759
GGCCAATA | 0.1
ACATCATC | 0.344
CTGGGTGC | -0.201
ACCGGCGA | 0.0231
ATAAGCAC | 0.175
CATATAGG | 0.0225
TACTGACA | 0.148
CTCTATAA | 0.0992
ACTGTGAT | 0.0172
CCGAGGTC | -0.109
AAGTAAGC | 0.178
TCTCCTCA | -0.149
GGAGTCTA | -0.18
